Measurements: paper PMC7819943, “Rice protein-binding microarrays: a tool to detect cis-acting elements near promoter regions in rice”
The other results are listed elsewhere or left out.

target: T1, OsSMF1 (Oryza sativa, UniProt Q6ZLB0 1-436); test: protein-binding microarray (RPBM); PBS, 2% BSA, 51.3 ng/ul salmon testes DNA, 50 uM zinc acetate, 200 nM TF, 25 C, 1 h; high values mean tight binding; details: protein: recombinant; tags: N-terminal polyhistidine and DsRed monomer fusion (pET32a); chain copies: 2; label: CyDye5-dUTP incorporated in the synthesized complementary strand; 3' TTTTT single-stranded linker to array surface; dsDNA, one strand shown
T1 sequence: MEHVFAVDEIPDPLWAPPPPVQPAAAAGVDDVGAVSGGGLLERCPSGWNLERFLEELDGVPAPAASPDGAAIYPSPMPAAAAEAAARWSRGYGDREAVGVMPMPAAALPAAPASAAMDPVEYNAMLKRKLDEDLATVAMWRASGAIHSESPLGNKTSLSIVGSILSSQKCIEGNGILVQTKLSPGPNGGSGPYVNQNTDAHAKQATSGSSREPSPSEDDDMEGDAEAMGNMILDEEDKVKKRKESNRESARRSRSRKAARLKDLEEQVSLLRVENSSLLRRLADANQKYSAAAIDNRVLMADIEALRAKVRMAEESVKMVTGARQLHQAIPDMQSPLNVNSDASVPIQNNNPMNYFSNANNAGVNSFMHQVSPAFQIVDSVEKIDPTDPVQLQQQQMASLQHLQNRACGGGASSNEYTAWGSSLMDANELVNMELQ
Method in brief: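 Ni–NTA purification followed expression in E. coli BL21-CodonPlus of transcription factors fused N-terminally to a polyhistidine tag and DsRed. At 200 nM in PBS with 2% BSA, salmon testes DNA and 50 µM zinc acetate, the protein was incubated for 1 h at 25 °C with a custom Agilent array that had been primer-extended with Cy5-dUTP and blocked with 2% BSA. After washing, the array was read on an Axon 4000B scanner. The binding signal is per-feature fluorescence intensity in arbitrary units.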

Sequence	binding signal
TAGGAGAAAATCATGACTCATTTGCAGCAGATCATGCCTCCGGAGTCACCTAGTGCAG	7570 fluorescence intensity (a.u.)
CCGTCCAACTTGAATCCAACGCCTAGATCTCCACTCCCACCGGAGTCACCTAGTGCAG	23100 fluorescence intensity (a.u.)
GAAGAGGGGAGTAGTGAGGATGACAGGTGGGGCCACGTGGCGGAGTCACCTAGTGCAG	14300 fluorescence intensity (a.u.)
TCCCGCTTTGACCCGCCTCCGTGTCACTCACTCCCGCCCGCGGAGTCACCTAGTGCAG	9370 fluorescence intensity (a.u.)
CCAGAACGCCACCCCGGCCGCGCGCCGCGCACGTCACTCGCGGAGTCACCTAGTGCAG	7300 fluorescence intensity (a.u.)
ATCCGATGTGACACGCCAAAATTTTACAAAACTACGTCTACGGAGTCACCTAGTGCAG	3140 fluorescence intensity (a.u.)
CGTGTTCTCGTCGTTGCTGGCATTCGACGTGTCAACGTGGCGGAGTCACCTAGTGCAG	6530 fluorescence intensity (a.u.)
GGCGACGCCATCTGCTTCACCTCCGGCAACTTGCTACCACCGGAGTCACCTAGTGCAG	32800 fluorescence intensity (a.u.)
CTCACACTACACCCACTCATCCACAGCGATCAACCGCATTCGGAGTCACCTAGTGCAG	3210 fluorescence intensity (a.u.)
TCTCTCCCTGGAGGCATGACGCGGCGGCGCCCGTGGCCGTCGGAGTCACCTAGTGCAG	10100 fluorescence intensity (a.u.)
CTCAACTTGTCATCGAGTTACAAAATCATCCTCGAACTGCCGGAGTCACCTAGTGCAG	3260 fluorescence intensity (a.u.)
AAGTCACCACAATGACACAATGCCACCACAGCAAAGTCCTCGGAGTCACCTAGTGCAG	6580 fluorescence intensity (a.u.)
CATGCCAATCGCGAAGCCCTACAAGCCGGGTTGTCATATGCGGAGTCACCTAGTGCAG	31600 fluorescence intensity (a.u.)
CCCCATCTTCCGGCTGATGAATGCAGATGTCATCTCATCTCGGAGTCACCTAGTGCAG	4190 fluorescence intensity (a.u.)
GGGAGGTGTGGTGATCGATCGCCATGCGCGGATTTTCTAACGGAGTCACCTAGTGCAG	5590 fluorescence intensity (a.u.)
GCTCCCTCAGCCGTGGCACGTGTTCACAAGCCGTGACCAGCGGAGTCACCTAGTGCAG	4570 fluorescence intensity (a.u.)
GCGTACTGCGTGCGTGCGCTTCATTTCGTTTCGTTGGGCCCGGAGTCACCTAGTGCAG	3300 fluorescence intensity (a.u.)
CACCTCCACGTCCATCTCTCTCTCTCTCTCCTCTCTCCTCCGGAGTCACCTAGTGCAG	5010 fluorescence intensity (a.u.)
ACGGCCTCCTCCCCTCTCCATCGATCGAGCGAGACGCTCCCGGAGTCACCTAGTGCAG	3250 fluorescence intensity (a.u.)
AGTTGCTTTCAGAGGTGAAGATTTGTCATGTTGTAAGATGCGGAGTCACCTAGTGCAG	3420 fluorescence intensity (a.u.)
AGGCGCGGTTAGCCGGAGAGGTCTCTTCGTCGTATCCATTCGGAGTCACCTAGTGCAG	21600 fluorescence intensity (a.u.)

Sequence	binding signal
GTGGGCCCGGTCAAAGCGACACGGACACGTGCCGGTGAGGCGGAGTCACCTAGTGCAG	6710 fluorescence intensity (a.u.)
ATGCGATTCGAGGGCGAATGGGGATGACGCACGAAGCCCCCGGAGTCACCTAGTGCAG	4860 fluorescence intensity (a.u.)
ATATATTTTCTTAAGTCTAATGCCACATAAGCGTCACATCCGGAGTCACCTAGTGCAG	10900 fluorescence intensity (a.u.)
TGGGCCCACCCCTCCACTCGCCCTCCTCTTCCCGCCACGTCGGAGTCACCTAGTGCAG	6190 fluorescence intensity (a.u.)
GCCGCCCGGAGGTGGGGCCCACCTCGTCAGTGTCAGTGTGCGGAGTCACCTAGTGCAG	3940 fluorescence intensity (a.u.)
CTTCTCTATGCTCGCATCTAGCTCGCAGCTCCGTCCATCTCGGAGTCACCTAGTGCAG	3620 fluorescence intensity (a.u.)
TCTCTCCACTCTTCTTTCCTCCACTTCAGCATTTAGCCGGCGGAGTCACCTAGTGCAG	3140 fluorescence intensity (a.u.)
ATCCACGAGGGCAAGCAAGCAAGCAAGCTCCACCTCTCTGCGGAGTCACCTAGTGCAG	3220 fluorescence intensity (a.u.)
ATGGACGCCAGAGTTTACATGGCATTGGATGCTTATTAAACGGAGTCACCTAGTGCAG	27300 fluorescence intensity (a.u.)
GTGTAGAATTTATATGTTGATAGGGTAGTTAGAAGAAAATCGGAGTCACCTAGTGCAG	15700 fluorescence intensity (a.u.)
GTCAATTTTCTCATATAACTTGTTTGAATTACGTTAGATACGGAGTCACCTAGTGCAG	15600 fluorescence intensity (a.u.)
AGCATGTTGAGTATCAAACATAAGATCTCAGGTTAAAACCCGGAGTCACCTAGTGCAG	3420 fluorescence intensity (a.u.)
TGTAATTGGCTGAGAGACCGTAACAACGTGACATGGCTCACGGAGTCACCTAGTGCAG	5860 fluorescence intensity (a.u.)
TGAGGTCCACATATACTCAGACACGCTAATCAAACCACCCCGGAGTCACCTAGTGCAG	3140 fluorescence intensity (a.u.)
GAGAGTTATATATATATATATATATATATGGGGTTTTGCGCGGAGTCACCTAGTGCAG	3740 fluorescence intensity (a.u.)
GGAGAATTCTGCAAAATTATCATCGTCCCCACCGTAGCGCCGGAGTCACCTAGTGCAG	3550 fluorescence intensity (a.u.)
TAGCTCAATGACTCGATCCAACTCTGTAAACCGTTGAGAGCGGAGTCACCTAGTGCAG	4230 fluorescence intensity (a.u.)
GGATCCCATTAACACGTGTCACCGTGGCATGCCACGTCATCGGAGTCACCTAGTGCAG	51400 fluorescence intensity (a.u.)
CTCCTGTATAACACAGCTGTCCAGTCAAACACCCAAGCTGCGGAGTCACCTAGTGCAG	3460 fluorescence intensity (a.u.)
TGATGGTGACACACAATTACAATATTATTTGTACTTATTTCGGAGTCACCTAGTGCAG	3340 fluorescence intensity (a.u.)
AGCAGGATTTTCGTTACTGTTGGTTTTCAATATATATGAACGGAGTCACCTAGTGCAG	3630 fluorescence intensity (a.u.)

Sequence	binding signal
TGGGCCGGCGCAGATTGCGGTTACGTGTGGCCCATCTATACGGAGTCACCTAGTGCAG	3340 fluorescence intensity (a.u.)
TATGTCACTTGCACCGCCACTAGCAACCAATATCAAACCACGGAGTCACCTAGTGCAG	3820 fluorescence intensity (a.u.)
GCCAAAATCTTGGCACTACTAAATTTAGTAGTATAGAATTCGGAGTCACCTAGTGCAG	3660 fluorescence intensity (a.u.)
CCACGTCCAACTCGGACTAGAAACTAATGGAAACCCGAAACGGAGTCACCTAGTGCAG	3330 fluorescence intensity (a.u.)
AGGGAAGCAAAGGCCCTCCTCCACCCTAGAGCATTCTCTCCGGAGTCACCTAGTGCAG	3520 fluorescence intensity (a.u.)
GGATGTCATGATAATTGACTTATGACAATGTGATTATTTCCGGAGTCACCTAGTGCAG	3280 fluorescence intensity (a.u.)
GATTAGTTATGACGACATTTGCCAAGTTTAATCATGCATTCGGAGTCACCTAGTGCAG	4040 fluorescence intensity (a.u.)
TTGATTGAAATTGGAGATGATGTGACTGAAAAGTTGTGTGCGGAGTCACCTAGTGCAG	4220 fluorescence intensity (a.u.)
ATATTTGATTCTAACCGATCTCGCTAGCTAGCTCCTAATTCGGAGTCACCTAGTGCAG	29000 fluorescence intensity (a.u.)
CGTCCTGCCGGTGGCCAGACAGCGCGTTCATCGCCAAGGACGGAGTCACCTAGTGCAG	3240 fluorescence intensity (a.u.)
CTTCGCTCTCTTTTCCATTGCAGAGCCCTCACGCTTCCGCCGGAGTCACCTAGTGCAG	3570 fluorescence intensity (a.u.)
ACCCATATAATTAAGGTGCCAATGCTGCTAATACTCTCTCCGGAGTCACCTAGTGCAG	46100 fluorescence intensity (a.u.)
AGGTGGCCGCCACCGCCACCGCCACGCCACTCCTCTCCTCCGGAGTCACCTAGTGCAG	6990 fluorescence intensity (a.u.)
TCCGTTCCGTGCTCTGTGTCCCATACTCTACGGCCACGCCCGGAGTCACCTAGTGCAG	3200 fluorescence intensity (a.u.)
GACCCAAAATTGTAAGGGCAGAATAGTAAATTGACGTGGACGGAGTCACCTAGTGCAG	6550 fluorescence intensity (a.u.)
GAATACTGATCGATACTAGTCCTGCTGACCACCCTGACCACGGAGTCACCTAGTGCAG	4000 fluorescence intensity (a.u.)
CCTCTAATAACTGGGCTACCACGTAGATGCCACATCATTGCGGAGTCACCTAGTGCAG	18400 fluorescence intensity (a.u.)
AGCAATCCAGGAGGTATACGAACCAAATTCTCTCGTAATCCGGAGTCACCTAGTGCAG	18900 fluorescence intensity (a.u.)
CGAACCTGGACACGCATATGTTTAGGCTCATAGCTAGAATCGGAGTCACCTAGTGCAG	3230 fluorescence intensity (a.u.)
CCGGCGCCACCAGCTTCCCGCTCGTCATCAACAGCGCCGCCGGAGTCACCTAGTGCAG	4320 fluorescence intensity (a.u.)
GGCGGCGACCTCGGGGTGCACCTCAAGCTCAAGCTCTCCTCGGAGTCACCTAGTGCAG	35200 fluorescence intensity (a.u.)

Sequence	binding signal
TCTCAGTGCCGGTGTGGGATCGTGGTTGTGTGTGTGATTGCGGAGTCACCTAGTGCAG	3740 fluorescence intensity (a.u.)
CACTGCAAGCGAGGAAAATTTCCACAGATCACCAGTGAATCGGAGTCACCTAGTGCAG	4530 fluorescence intensity (a.u.)
GCGCCGTCGCCCGCGACGTGCTGGTCCCGTCATCAGCGCGCGGAGTCACCTAGTGCAG	4010 fluorescence intensity (a.u.)
ACCTGTTGTACTTAGTTACGGCGACACGTTTGCATCAGGCCGGAGTCACCTAGTGCAG	6860 fluorescence intensity (a.u.)
AGCTCTCTCTCTCTCGGCTCGGCTCAGCTCGGCGCGTGCACGGAGTCACCTAGTGCAG	3850 fluorescence intensity (a.u.)
TGAGTCGGTATTAGAGGGAGAGCTGACCTGCATTAAGTTTCGGAGTCACCTAGTGCAG	3480 fluorescence intensity (a.u.)
TTTAATTGTTCTGCGATTACGGTAGAAATAGATCGGGCTTCGGAGTCACCTAGTGCAG	3210 fluorescence intensity (a.u.)
ATGAGCCCATCCGTCACTGCCACGGTTCCATCAACATCTACGGAGTCACCTAGTGCAG	3590 fluorescence intensity (a.u.)
GTATGGGTTCGAGGAGTGATGTGGTGATGGGCAAACCCATCGGAGTCACCTAGTGCAG	3300 fluorescence intensity (a.u.)
GTCAAGGAGTTCAAGGGAGGAAGAGGACAACCCACTCCAACGGAGTCACCTAGTGCAG	3330 fluorescence intensity (a.u.)
CACCGGATAGAGAGAGAGAGGAGTCAGCGCACGCGCCGAGCGGAGTCACCTAGTGCAG	4020 fluorescence intensity (a.u.)
ACTGCATCGTTTTGTTAAAACTAGTATCCAAGTGTCATTGCGGAGTCACCTAGTGCAG	3220 fluorescence intensity (a.u.)
CCTCTTCCTCCTCCTCCTCCTCCCCAAAGGTGCAATGCCCCGGAGTCACCTAGTGCAG	18000 fluorescence intensity (a.u.)
CCTACCCACCAGTAATAAAGCACCACGTGTCGCGAGGGTACGGAGTCACCTAGTGCAG	9700 fluorescence intensity (a.u.)
GTCGGTGATAACAACATCCACATCATCGTTGTATTACGTGCGGAGTCACCTAGTGCAG	11700 fluorescence intensity (a.u.)
AACTTTGCTTTGCAAAACATGTCATCATAAACTACTTCGCCGGAGTCACCTAGTGCAG	5310 fluorescence intensity (a.u.)
CGCTGCAAATCCCAATCGGCTCTCACACCGACACGTGGGCCGGAGTCACCTAGTGCAG	9110 fluorescence intensity (a.u.)
GCCGATTGCCACTCTGTTCTTAGCGTTTCTTGCGTTAGATCGGAGTCACCTAGTGCAG	3560 fluorescence intensity (a.u.)
GTGGTTAACGAAGACGATGACGTGGAGTTGCAGGCGTTCACGGAGTCACCTAGTGCAG	14400 fluorescence intensity (a.u.)
GGCGGCCGGCGGCAGTGGCGCAGAGGCGTCCGGCGGCGGCCGGAGTCACCTAGTGCAG	14900 fluorescence intensity (a.u.)
TTCATGGTTACCGCGGTTAACACGTGGTAACCGTACTTACCGGAGTCACCTAGTGCAG	3550 fluorescence intensity (a.u.)

Part of the list above, set out differently:
GGCGACGCCATCTGCTTCACCTCCGGCAACTTGCTACCACCGGAGTCACCTAGTGCAG
  binding signal: 32800 fluorescence intensity (a.u.)
AGCAGGATTTTCGTTACTGTTGGTTTTCAATATATATGAACGGAGTCACCTAGTGCAG
  binding signal: 3630 fluorescence intensity (a.u.)
CCTCTAATAACTGGGCTACCACGTAGATGCCACATCATTGCGGAGTCACCTAGTGCAG
  binding signal: 18400 fluorescence intensity (a.u.)
GGCGGCGACCTCGGGGTGCACCTCAAGCTCAAGCTCTCCTCGGAGTCACCTAGTGCAG
  binding signal: 35200 fluorescence intensity (a.u.)
